Test results: PMC11383184
These are yes or no findings as the source states them, for the method shown. Binding seen in cells or lysates may run through a third protein. Some entries that bind do so weakly or less than the wild type. Blank lines part the entries; values can stand above or below the binder they belong to.

By UniProt entry, the sequences of proteins in these tests, tags left out. Residues count along the entry.
UniProt P09103, residues 20-509: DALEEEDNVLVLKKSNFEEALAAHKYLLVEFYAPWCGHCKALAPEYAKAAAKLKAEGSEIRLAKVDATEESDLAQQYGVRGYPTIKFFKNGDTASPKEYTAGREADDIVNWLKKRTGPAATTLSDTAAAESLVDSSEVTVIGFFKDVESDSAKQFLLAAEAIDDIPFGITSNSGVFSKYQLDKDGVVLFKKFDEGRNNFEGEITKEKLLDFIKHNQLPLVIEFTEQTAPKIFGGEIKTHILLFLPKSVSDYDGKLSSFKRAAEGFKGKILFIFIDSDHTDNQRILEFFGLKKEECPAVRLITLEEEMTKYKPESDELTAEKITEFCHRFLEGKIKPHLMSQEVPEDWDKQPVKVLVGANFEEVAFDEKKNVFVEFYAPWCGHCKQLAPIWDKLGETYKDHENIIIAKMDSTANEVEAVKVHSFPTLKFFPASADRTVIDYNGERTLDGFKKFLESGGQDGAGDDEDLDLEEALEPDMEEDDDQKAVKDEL

Target: protein disulfide isomerase (mouse (endogenous in testes)) (UniProt P09103)
Assay: co-IP; anti-PDI antibody added to testes lysates of WT mice overnight at 4°C, protein G beads 2 hours, washed 3 times with lysis buffer (20 mM Tris-HCl, 150 mM NaCl pH 7.4, 1% Triton X-100, 1 mM EDTA, 0.5% sodium deoxycholate); partners detected by Western blotting

binding: binds
B1: SHCBP1L (protein, UniProt Q3TTP0 1-639)
chain: MESDATTSEPKASVGSDSSPAEQTVLATLRDSVAAPTRGFMSPVRSVVASPRPVKGKAARRRLQLPPVTQAETCDEEPVPAVPEDQEEAQPLPPIYASPMRGMWRSEKVALYCDQVLQGSKAEDAEEAMSRYLLEKLKAKDRWLGVWKSNPELFFEKYEEASIPFVGILVEVTCKPRQNLSSCFKVTVSVAEPFSSNIANIPRDLVDEVLGELEYSAPLLEVYPVDGQDADVRDIALALEVVRFFYDFLWRDWDDEENCENYTALIEERINLWCDIQDGTIPGPIAQRFKKTLEKYKNKRVELIEYQSNIKEDPSAAEAVECWKKYYEIVMLCGLLKMWEDLRLRVHGPFFPRILRRRKGKRDFGKTITHIVAKVMTTDMVKNLSSDTLLQQHNDLNLALDSCYSGDIVVIFPGEYQASNLALLTDDITIKGVGKREEIMITSEPSHDSFVVSKADNVKLMQLSLIQQGTVDGIVVVESGHLTLENCLLKCEGTGVCVLTGASLTITNSEITGAQGAGVELYPGSIAILEGNEIHHCNNLRTSDSSKSTLGGVNMKVLPAPKLKMTNNHIYNNNGYGVSILQPSEQFFIVAEAALNKGAASGDKKDDKMLSKVMQTLNVEMNNNRIEANLKGDIRIVTG

binding: binds
B2: DDX4 (protein, UniProt Q61496 1-702)
chain: MGDEDWEAEILKPHVSSYVPVFEKDKYSSGANGDTFNRTSASSDIGESSKKENTSTTGGFGRGKGFGNRGFLNNKFEEGDSSGFWKESNNDCEDNQTRSRGFSKRGGCQDGNDSEASGPFRRGGRGSFRGCRGGFGLGRPNSESDQDQGTQRGGGLFGSRKPAASDSGNGDTYQSRSGSGRGGYKGLNEEVVTGSGKNSWKSETEGGESSDSQGPKVTYIPPPPPEDEDSIFAHYQTGINFDKYDTILVEVSGHDAPPAILTFEEANLCQTLNNNIAKAGYTKLTPVQKYSIPIVLAGRDLMACAQTGSGKTAAFLLPILAHMMRDGITASRFKELQEPECIIVAPTRELINQIYLEARKFSFGTCVRAVVIYGGTQFGHSVRQIVQGCNILCATPGRLMDIIGKEKIGLKQVKYLVLDEADRMLDMGFGPEMKKLISCPGMPSKEQRQTLLFSATFPEEIQRLAGDFLKSSYLFVAVGQVGGACRDVQQTILQVGQYSKREKLVEILRNIGDERTMVFVETKKKADFIATFLCQEKISTTSIHGDREQREREQALGDFRCGKCPVLVATSVAARGLDIENVQHVINFDLPSTIDEYVHRIGRTGRCGNTGRAISFFDTDSDNHLAQPLVKVLSDAQQDVPAWLEEIAFSTYVPPSFSSSTRGGAVFASVDTRKNYQGKHTLNTAGISSSQAPNPVDDESWD
